Patent publication US20110129457A1
No constants are given. Whether binding was seen depends on the method and setting. Binding calls can cover weak binding; strength is not graded here. For some of these results: Tags and fused reporters may be left off the sequences shown. Blank lines part the entries; values can stand above or below the binder they belong to.

Sequences of proteins named here, by UniProt entry; tags and fusion partners are left off. A change or cut given only in a name is not applied to a line headed by its entry.
UniProt Q15465: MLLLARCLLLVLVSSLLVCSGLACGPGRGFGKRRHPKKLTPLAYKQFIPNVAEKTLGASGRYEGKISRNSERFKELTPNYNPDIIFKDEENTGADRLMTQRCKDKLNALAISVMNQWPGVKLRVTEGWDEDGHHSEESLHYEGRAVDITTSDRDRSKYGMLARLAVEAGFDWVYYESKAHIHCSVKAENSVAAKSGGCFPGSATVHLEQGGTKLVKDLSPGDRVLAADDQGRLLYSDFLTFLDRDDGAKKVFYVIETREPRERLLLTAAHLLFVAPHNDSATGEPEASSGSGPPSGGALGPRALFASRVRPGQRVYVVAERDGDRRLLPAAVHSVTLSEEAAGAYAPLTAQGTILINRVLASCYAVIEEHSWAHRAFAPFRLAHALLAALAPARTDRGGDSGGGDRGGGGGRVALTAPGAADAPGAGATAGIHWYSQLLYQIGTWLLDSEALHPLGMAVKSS

Experiments:
[1] = molecular target: Shh (residues 29-197) lacking the His6-Tag, after thrombin treatment (human) (UniProt Q15465); assay: NMR, 15N,1H-HSQC of 90 µM 15N-Shh alone and with 2 mM unlabeled cyclic Hhip L2 peptide
[2] = molecular target: Shh (residues 29-197) lacking the His6-Tag, after thrombin treatment (human) (UniProt Q15465); assay: NMR, 13C,1H-HSQC of the histidine side chains of Shh; 2 mM Hhip L2 peptide added to Shh with 2 mM Ptch1 L2-like peptide (the competitor)
[3] = molecular target: Shh (residues 29-197) lacking the His6-Tag, after thrombin treatment (human) (UniProt Q15465); assay: NMR 13C,1H-HSQC of Shh histidine side chains, 2 mM peptide
[4] = molecular target: Shh (residues 29-197) lacking the His6-Tag, after thrombin treatment (human) (UniProt Q15465); assay: NMR, 13C,1H-HSQC of the histidine side chains of Shh alone and with 2 mM Hhip L2 peptide
[5] = molecular target: Shh (residues 29-197) lacking the His6-Tag, after thrombin treatment (human) (UniProt Q15465); assay: NMR 15N,1H-HSQC, 90 µM 15N-Shh with 2 mM peptide
[6] = molecular target: Shh (residues 29-197) lacking the His6-Tag, after thrombin treatment (human) (UniProt Q15465); assay: NMR, 13C,1H-HSQC of the histidine side chains of Shh alone and with 2 mM Ptch1 L2-like peptide
[7] = molecular target: Shh (residues 29-197) lacking the His6-Tag, after thrombin treatment (human) (UniProt Q15465); assay: NMR, 15N,1H-HSQC of 90 µM 15N-Shh alone and with 2 mM unlabeled cyclic Ptch L2 peptide
[8] = molecular target: Shh (residues 29-197) lacking the His6-Tag, after thrombin treatment (human) (UniProt Q15465); assay: size exclusion chromatography of the complex

binding [1]: binds | binding [2]: binds | binding [3]: binds | binding [4]: binds | binding [5]: binds
B1: Hhip1β12 L2 peptide, disulfide-containing cyclic (…) (peptide)
peptide: GCGMITLDDMEEMDGLSDFCG
modifications: disulfide-containing cyclic peptide

binding [6]: binds | binding [3]: binds | binding [7]: binds | binding [5]: binds
B2: Ptch L2 peptide, disulfide-containing cyclic (…) (peptide)
peptide: GCQLTKQRLVDADGIINPCG
modifications: disulfide-containing cyclic peptide

binding [8]: binds
B3: Hhip1β12 (β-propeller-EGF1-EGF2, residues 193-667), C-terminal His6-tag (receptor)
chain: SNYLDQMEEYDKVEEISRKHKHNCFCIQEVVSGLRQPVGALHSGDGSQRLFILEKEGYVKILTPEGEIFKEPYLDIHKLVQSGIKGGDERGLLSLAFHPNYKKNGKLYVSYTTNQERWAIGPHDHILRVVEYTVSRKNPHQVDLRTARVFLEVAELHRKHLGGQLLFGPDGFLYIILGDGMITLDDMEEMDGLSDFTGSVLRLDVDTDMCNVPYSIPRSNPHFNSTNQPPEVFAHGLHDPGRCAVDRHPTDININLTILCSDSNGKNRSSARILQIIKGKDYESEPSLLEFKPFSNGPLVGGFVYRGCQSERLYGSYVFGDRNGNFLTLQQSPVTKQWQEKPLCLGTSGSCRGYFSGHILGFGEDELGEVYILSSSKSMTQTHNGKLYKIVDPKRPLMPEECRATVQPAQTLTSECSRLCRNGYCTPTGKCCCSPGWEGDFCRTAKCEPACRHGGVCVRPNKCLCKKGYLGPQCEHHHHHH
